This is one part of the list. These are further read-outs of the screen, such as a control signal, another cell line or another target. No call is given for them. Compounds called inactive in the main read-out are mostly missing here. The note in brackets gives the kind of curve behind each potency; many fits are weak.
Experiment: qHTS Assay for Identifying the Cell-Membrane Permeable IMPase Inhibitors
Conditions: CHO-M1 cells, IP1 accumulation, HTRF TR-FRET ratio; measured here: donor channel 620 nm AC50

SMILES	AC50
CSc1cnn(-c2ccccc2)c(=O)c1SC	20 µM [rising, single point]
Nn1c(SC/C=C/c2ccccc2)nnc1-c1ccccn1	0.0251 µM [rising, full curve, poor fit]
COc1ccc(-n2nnnc2SCC(=O)N2CCCC2)cc1OC	0.00501 µM [rising, full curve, poor fit]
COC(=O)CN(c1ccccc1F)S(=O)(=O)c1ccccc1	3.98 µM [falling, full curve, poor fit]
Cc1nc2ccccc2n1/C(=N\S(=O)(=O)c1ccccc1)c1ccccc1	15.8 µM [rising, partial curve, poor fit]
COc1ccccc1N1CCN(C(=O)C(Sc2ccccc2)c2ccccc2)CC1 (centres undefined)	0.0316 µM [rising, full curve, poor fit]
Cc1ccc(Cn2c(C(=O)NCCCN3CCOCC3)cc3sccc32)cc1	5.62 µM [falling, single point]
COC(=O)C1C(=O)NCC1c1ccccc1 (centres undefined)	5.01 µM [falling, single point]
CCOC(=O)c1c(-c2ccccc2)nnn1-c1nc(OC)nc(N2CCOCC2)n1	0.158 µM [falling, partial curve, poor fit]
O=C(CCCc1nc(-c2ccccc2Cl)no1)NC1CCCCC1	6.31 µM [rising, single point]
COCCNC(=O)COC(=O)/C=C/c1c(C)nn(Cc2ccc(Cl)cc2Cl)c1Cl	2.51 µM [rising, full curve]
Clc1ccccc1Sc1cnc2ccccc2n1	20 µM [rising, single point]
O=C1N=C(N2CCCC2)S/C1=C\c1ccccc1	0.2 µM [rising, single point]
CC(C)(C)c1ccc(C(=O)c2c[nH]c(C(=O)NCc3cccs3)c2)cc1	0.0126 µM [rising, full curve, poor fit]
COc1ccccc1-c1n[nH]c(=S)n1-c1ccccc1	15.8 µM [rising, partial curve]
CCCCNC(=O)c1sc(=S)n(-c2ccccc2OC)c1N	0.1 µM [falling, full curve, poor fit]
O=C(c1cccc(S(=O)(=O)Nc2cccc(C(F)(F)F)c2)c1)N1CCCCC1	0.0224 µM [falling, full curve, poor fit]
c1ccc(-c2nc(-n3nc4ccccc4n3)nc3ccccc23)cc1	25.1 µM [rising, partial curve]
COc1ccc(Br)c2c1-c1nc(NC(=O)c3ccccc3SC)sc1C2	0.126 µM [falling, single point]

2 records drawn at random from those above, as already listed:
SMILES	AC50
CCCCNC(=O)c1sc(=S)n(-c2ccccc2OC)c1N	0.1 µM [falling, full curve, poor fit]
COc1ccc(Br)c2c1-c1nc(NC(=O)c3ccccc3SC)sc1C2	0.126 µM [falling, single point]

Reference: PubChem BioAssay AID901 (National Center for Advancing Translational Sciences (NCATS), 2007)
